Reference: patent US8143270B2, “2-amino 1H-in-imidazo ring systems and methods” (3M Innovative Properties Company, priority 2004, dated 2012)
Counter-ions that a name gives are not always drawn. Some of these results come from one statement about several compounds together.

Tested on: human peripheral blood mononuclear cells (PBMC)
Assay: Cytokine induction in human cells (standard method or high throughput screen)
Type: cell-based
Conditions: human PBMC culture, compounds generally tested at 30-0.014 μM, 18 to 24 hours; IFN-α and TNF-α in culture supernatant; one of the two methods described

| Structure (SMILES) | induction of production of interferon α and/or tumor necrosis factor α (modulation of cytokine biosynthesis) |
| --- | --- |
| CC(C)Cn1c(N)nc2c(N)nc3ccccc3c21 [Example 1, 1-(2-Methylpropyl)-1H-imidazo[4,5-c]quinoline-2,4-diamine] | inducing the production of interferon a and/or tumor necrosis factor α |
| CC(C)(O)Cn1c(N)nc2c(N)nc3ccccc3c21 [Example 2, 1-(2,4-Diamino-1H-imidazo[4,5-c]quinolin-1-yl)-2-methylpropan-2-ol hydrobromide] | inducing the production of interferon a and/or tumor necrosis factor α |
| CC(C)(Cn1c(N)nc2c(N)nc3ccccc3c21)NS(C)(=O)=O [Example 3, N-[2-(2,4-Diamino-1H-imidazo[4,5-c]quinolin-1-yl)-1,1-dimethylethyl]methanesulfonamide] | inducing the production of interferon a and/or tumor necrosis factor α |
| Nc1nc2ccccc2c2c1nc(N)n2Cc1ccccc1 [Example 4, 1-Benzyl-1H-imidazo[4,5-c]quinoline-2,4-diamine] | inducing the production of interferon a and/or tumor necrosis factor α |
| COCCNc1nc2c(N)nc3ccccc3c2n1CC(C)(C)O [Example 8, 1-{4-Amino-2-[(2-methoxyethyl)amino]-1H-imidazo[4,5-c]quinolin-1-yl}-2-methylpropan-2-ol] | inducing the production of interferon a and/or tumor necrosis factor α |
| CC(C)(O)Cn1c(N)nc2c(N)nc3c(c21)CCCC3 [Example 18, 1-(2,4-Diamino-6,7,8,9-tetrahydro-1H-imidazo[4,5-c]quinolin-1-yl)-2-methylpropan-2-ol] | inducing the production of interferon a and/or tumor necrosis factor α |
| NCCCn1c(N)nc2c(N)nc3ccccc3c21 [Example 19, 1-(3-aminopropyl)-1H-imidazo[4,5-c]quinoline-2,4-diamine] | inducing the production of interferon a and/or tumor necrosis factor α |
| CC(C)(F)Cn1c(N)nc2c(N)nc3ccccc3c21 [Example 43, 1-(2-Fluoro-2-methylpropyl)-1H-imidazo[4,5-c]quinoline-2,4-diamine] | inducing the production of interferon a and/or tumor necrosis factor α |
| C[C@H](c1ccccc1)n1c(N)nc2c(N)nc3ccccc3c21 [Example 44, 1-[(1R)-1-Phenylethyl]-1H-imidazo[4,5-c]quinoline-2,4-diamine] | inducing the production of interferon a and/or tumor necrosis factor α |
| C[C@@H](c1ccccc1)n1c(N)nc2c(N)nc3ccccc3c21 [Example 45, 1-[(1S)-1-Phenylethyl]-1H-imidazo[4,5-c]quinoline-2,4-diamine] | inducing the production of interferon a and/or tumor necrosis factor α |
| Nc1nc2cc(Br)ccc2c2c1nc(N)n2Cc1ccccc1 [Example 172, 1-benzyl-7-bromo-1H-imidazo[4,5-c]quinolin-2,4-diamine] | inducing the production of interferon a and/or tumor necrosis factor α |
